This is one part of the list.
B1: il2ra_site1_2b5i_sap_21_mot_ceb06541b665a12e9032ae1d16718599_0001_000000200_0001_16_30_H_._HHH_b1_01400_0001_0000600031_0000001_0_0001_af2pred_dldesign_0_af2pre … (protein)
chain: SSSDIEELERYAADVIYRLKAEYKLTVEQTKKLEDLAIELIDAGVSKEEIERRLRELAEKLSSSS
B2: il2ra_site1_3nfp_sap_16_mot_HHH_b1_03236_000000173_0001_17_33_H_._HHH_b1_01532_0001_0000300008_0000001_0_0001_af2pred_0001_af2pred_1_swapped (protein)
chain: SSSSDKREEAQRLSRRIEELIKEGDHEEARELLEELEELARELGSPAAKILVERLEKRIDSSSSS
B3: il2ra_site2_3nfp_sap_18_mot_HHH_b1_08395_000000276_0001_20_37_H_._74ee64136907a37587970186735a14f9_0001_0001_0000200022_0000001_1_0001 (protein)
chain: SSSSDKEEEEVKELIERIEELIKNGNPEEARELLRRAAQLAWEINNPELFFKLAELLLELASSSS
B4: il2ra_site1_2b5i_sap_14_mot_HHH_b1_05947_000000126_0001_42_56_H_._HHH_b2_02221_af2_0001_0000100001_0000001_0_0001_af2pred_dldesign_0_af2pred (protein)
chain: SSSSSSEAFDKVEDLFNEAMKLKDLEKRKEVLEKAIEVAEAGKDKKTVEQLKKYLELISSSSSSS
B5: il2ra_site2_2erj_sap_26_mot_35d2dc24e2c4431f89e6f806b163ecf8_0001_af2_000000142_0001_35_50_H_._HHH_b2_06829_0001_0000200022_0000001_0_0001 (protein)
chain: SSSSDEEAREVAEASIEAAELARRGNEEEARELLEEAIEHFRELNNEFAVRFLEFALRYISSSSS
B6: il2ra_site1_2b5i_normal_mot_HHH_b1_02271_000000068_0001_1_16_H_._HHH_b1_07466_af2_0001_0000300006_0000001_0_af2pred_dldesign_0_af2pred (protein)
chain: SSSSSDIEKEFEKVKAEAEALKAAGKRREALELLNEAYKYVSEKGDDELLDEIEKLAKELSSSSS
B7: il2ra_site1_1z92_normal_mot_HHH_b2_00969_af2_000000010_0001_43_57_H_._HHH_b1_01772_0001_0000700040_0000001_0_af2pred_dldesign_0_af2pred (protein)
chain: SSSSSSSERVEELEDRAAKLLKERTPESLKELEKLLKEAEALGETKLAKDIKTYLELASSSSSSS
B8: il2ra_site2_2erj_sap_24_mot_dcd9809507f71d420582ead1f1e1bbb3_0001_000000226_0001_37_50_H_._HHH_b2_06428_0001_0000100002_0000001_0_0001 (protein)
chain: SSSSDEEEERVEELLEQAREAYEEGDLHLVYELAVEALHVASESNNPELQRLVAEVVERLASSSS
B9: il2ra_site1_3nfp_normal_mot_HHH_b1_08274_000000076_0001_43_57_H_._HHH_b2_06250_0001_0000300016_0000001_0 (protein)
chain: SSSSSSDAEELVEELLEEARHIEDPEEARRVFQEAFRIAAKHNDDEADRLILEFVREESSSSSSS
B10: il2ra_site1_1z92_sap_14_mot_HHH_b2_01411_000000211_0001_19_33_H_._HHH_b1_01160_af2_0001_0000100005_0000001_0_0001_af2pred_0001_af2pred (protein)
chain: DLSELLKELQEKDPEVKEIFEFLEEVNDEDPTDKEAQKILRLLLLAARRDDPELVREAKELVERR
B11: il2ra_site1_1z92_normal_mot_01209686ea234b34325f918445e6eade_0001_af2_000000154_0001_18_33_H_._HHH_b1_00430_0001_0000200014_0000001_0 (protein)
chain: SSSSDEEEEQLERIVEELVREYNLSEEEKEALEQDARAALRLGASEKYIEKALRRAAELASSSSS
B12: il2ra_site1_1z92_normal_mot_01209686ea234b34325f918445e6eade_0001_af2_000000154_0001_18_33_H_._HHH_b1_06581_0001_0000400055_0000001_0_af2pred_0001_af2pred (protein)
chain: SSSSDLEERAEEIVEELVRELNLSEEQERALRYAAENAVKAGFSEKSIERALRDLAELSLSSSSS
B13: il2ra_site1_3nfp_normal_mot_HHH_b1_01763_000000277_0001_1_20_H_._e97b41f4e209c0640d4e43cb61b66542_0001_0001_0000600038_0000001_0 (protein)
chain: DVEELVRLFRDAGSIEKAVEEALKLARRMGDPELERLLEEAKRLIQEGDPEEAEELLERFLRLLK
B14: il2ra_site1_1z92_normal_mot_0a69b5c9b02373fb877a90f2b4b0d8e1_0001_1_af2_000000257_0001_17_32_H_._8e5dab46bb8b9fdb8a52196c49b730f0_0001_0001_0000400020_0000001_0 … (protein)
chain: SELELSFRHALENGIPPRQVAKVLIRLLERRGLPPEEIERLIEEALEKVLNVPPEEAQEIIEKAE
B15: il2ra_site1_3nfp_sap_12_mot_HHH_b2_02552_af2_000000235_0001_1_20_H_._HHH_b2_07743_0001_0000100007_0000001_0_0001_af2pred_0001_af2pred (protein)
chain: SSSSEDEKLFEEAERLLEEAKKKGDPRLARRVDELIKLLAKLGDPELARRLFKLVEEIIRNSSSS
B16: il2ra_site2_2erj_sap_24_mot_HHH_b2_00789_000000198_0001_40_54_H_._HHH_eva_0320_af2_0001_0000100002_0000001_0_0001 (protein)
chain: SSSSDEHLRELFRLAVELLAAVARRDPELFEELLREVKRLAEELNNENAKEIVEDLERRFHSSSS
B17: il2ra_site1_1z92_sap_12_mot_3cad0fa5fd511b0551b272d6504d3e9d_0001_1_000000015_0001_37_51_H_._c9a8daa1dfea21d1414aecde54be4f54_0001_1_0001_0000300011_0000001_0_0 … (protein)
chain: SRLERDVRLILELAGDPEKAVRFVERFAKLLFERGDPEAAEELLEVAAEILGDPRLEELLEEIRK
B18: il2ra_site1_3nfp_normal_mot_cc4219192d8ccd35c40e7b68f9a57604_0001_af2_000000124_0001_16_32_H_._HHH_b1_08473_0001_0000600030_0000001_0 (protein)
chain: SSSSSQADEFLERLAEELFEEGDEKQIRAILKLVRHALETLGNPIAEEVARIIEELLEKLSSSSS
B19: il2ra_site1_2b5i_sap_8_mot_HHH_b2_07920_000000157_0001_21_37_H_._HHH_b1_08163_0001_0000600024_0000001_0_0001 (protein)
chain: SSSSSEAARRARELFHEADELDKRGNPEEAEEVLREALELAREAGSPNLARMIEAALRQLGSSSS

target: il2ra, P01589; experiment: yeast display titration

Apparent Kd, inactive:
B1 no binding seen
B2 > 412 nM
B3 no binding seen
B4 no binding seen
B5 no binding seen
B6 no binding seen
B7 no binding seen
B8 no binding seen
B9 no binding seen
B10 no binding seen
B11 no binding seen
B12 no binding seen
B13 no binding seen
B14 no binding seen
B15 no binding seen
B16 no binding seen
B17 no binding seen
B18 no binding seen
B19 no binding seen

Pulled one by one from the list above, two records:
Apparent Kd, inactive:
B8 no binding seen
B12 no binding seen

— paper PMC10163288
